Assay: Product characterization of micronized / spray dried powder (XRPD, amorphous content, water content by KF, assay and related substances, SSA)
Format: physicochemical
Conditions: final product, Compound 1 alone, wet polished and spray dried
Source text: The final spray dried product was characterized for assay and related substances, PSD, water content by KF and XRPD and the results shown in Table 43. The two sub-batches were blended to obtain the final product, with a total final yield was 137 g (68%), see Table 44.

**Q.** Which results are given for `COc1ccc(-c2cncc(N[C@@H](C)c3cccc(NC(=O)c4cncc(C)c4)c3)n2)cc1OC` [Compound 1, N-{3-[(1S)-1-{[6-(3,4-dimethoxyphenyl)pyrazin-2-yl]amino}ethyl]phenyl}-5-methylpyridine-3-carboxamide]?
**A.** Assay: 101.1 % LC; Impurities: 1.2 % area

— patent US12703693B2, “Crystalline forms of N-{3-[(1S)-1-{[6-(3,4-dimethoxyphenyl)pyrazin-2-yl]amino}ethyl]phenyl}-5-methylpyridine-3-carboxamide and related products and methods” (GB002, INC., priority 2021, dated 2026)
